PMC12669776
No constants are given. Whether binding was seen depends on the method and setting. In cells and extracts the contact can be indirect. Some results given as binding are weak or reduced against the parent protein; the word gives no strength. Blank lines part the entries; values can stand above or below the binder they belong to.

Columns and labels:
[1] = molecular target: EZH2 (endogenous, mouse embryonic stem cells) (mouse (endogenous in E14 ESCs)), Q61188; test: co-IP; endogenous co-IPs of EZH2 and of JARID2 from nuclear extracts of WT, LKO, SKO and Aebp2 KO mouse ESC lines; Benzonase; Protein G Dynabeads; Western blot; details: remark: other sources report otherwise
[2] = molecular target: T1, JARID2 (endogenous, mouse embryonic stem cells) (mouse (endogenous in E14 ESCs)), Q62315; test: as above; details: remark: other sources report otherwise
T1 chain: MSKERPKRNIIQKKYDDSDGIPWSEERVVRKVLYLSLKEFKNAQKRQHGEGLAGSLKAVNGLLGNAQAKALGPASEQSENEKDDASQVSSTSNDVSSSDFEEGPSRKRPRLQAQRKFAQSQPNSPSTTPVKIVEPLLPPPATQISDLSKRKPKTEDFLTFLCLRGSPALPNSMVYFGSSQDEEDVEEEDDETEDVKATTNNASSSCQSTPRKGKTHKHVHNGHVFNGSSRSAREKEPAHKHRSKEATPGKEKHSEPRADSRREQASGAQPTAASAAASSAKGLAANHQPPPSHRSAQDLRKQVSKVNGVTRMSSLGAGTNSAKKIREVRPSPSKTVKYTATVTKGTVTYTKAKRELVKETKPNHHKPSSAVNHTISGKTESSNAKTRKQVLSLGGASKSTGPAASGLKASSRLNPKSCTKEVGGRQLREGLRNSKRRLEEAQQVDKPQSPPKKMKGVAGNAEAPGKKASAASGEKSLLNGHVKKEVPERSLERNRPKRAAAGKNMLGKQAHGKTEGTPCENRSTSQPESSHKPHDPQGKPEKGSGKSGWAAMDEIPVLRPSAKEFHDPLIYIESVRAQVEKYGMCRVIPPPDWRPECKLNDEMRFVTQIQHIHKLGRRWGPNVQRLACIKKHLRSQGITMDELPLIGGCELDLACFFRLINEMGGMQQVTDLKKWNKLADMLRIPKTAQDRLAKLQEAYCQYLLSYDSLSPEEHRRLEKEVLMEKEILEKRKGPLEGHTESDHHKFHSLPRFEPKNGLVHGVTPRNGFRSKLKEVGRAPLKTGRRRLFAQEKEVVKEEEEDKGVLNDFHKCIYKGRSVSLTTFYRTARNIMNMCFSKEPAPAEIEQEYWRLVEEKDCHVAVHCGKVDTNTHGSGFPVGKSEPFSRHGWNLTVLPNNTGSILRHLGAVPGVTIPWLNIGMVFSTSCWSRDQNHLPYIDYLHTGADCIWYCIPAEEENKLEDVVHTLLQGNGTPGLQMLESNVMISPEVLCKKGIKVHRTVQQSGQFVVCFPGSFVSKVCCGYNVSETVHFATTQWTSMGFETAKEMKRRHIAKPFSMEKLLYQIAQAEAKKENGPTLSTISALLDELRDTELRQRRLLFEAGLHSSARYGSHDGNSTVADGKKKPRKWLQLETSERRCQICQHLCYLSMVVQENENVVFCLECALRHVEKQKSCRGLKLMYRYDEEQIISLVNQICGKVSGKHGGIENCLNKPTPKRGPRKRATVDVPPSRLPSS

binding [1]: binds
B1: JARID2 (endogenous, mouse embryonic stem cells), Q62315 1-1234 (protein)
chain: T1 chain

binding [2]: binds
B2: MTF2 (endogenous, mouse embryonic stem cells), Q02395 1-593 (protein)
chain: MRDSTGAGNSLVHKRSPLRRNQKTSASLNKLSLQDGHKAKKPACKFEEGQDVLARWSDGLFYLGTIKKINILKQSCFIIFEDSSKSWVLWKDIQTGATGSGEMVCTICQEEYSEAPNEMVICDKCGQGYHQLCHTPHIDSSVIDSDEKWLCRQCVFATTTKRGGALKKGPNAKALQVMKQTLPYSVADLEWDAGHKTNVQQCYCYCGGPGDWYLKMLQCCKCKQWFHEACVQCLQKPMLFGDRFYTFICSVCSSGPEYLKRLPLQWVDIAHLCLYNLSVIHKKKYFDSELELMTYINENWDRLHPGELADTPKSERYEHVLEALNDYKTMFMSGKEIKKKKHLFGLRIRVPPVPPNVAFKAEKEPEGTSHEFKIKGRKASKPTSDSREVSNGIEKKGKKKSVGRPPGPYTRKMIQKTAELPLDKESVSENPTLDLPCSIGRTEGIAHSSNTSDVDLTGASSANETTSASISRHCGLSDSRKRTRTGRSWPAAIPHLRRRRGRLPRRALQTQNSEVVKDDEGKEDYQFEELNTEILNNLADQELQLNHLKNSITSYFGAAGRIACGEKYRVLARRVTLDGKVQYLVEWEGATAS

binding [2]: binds
B3: AEBP2-Long (endogenous, mouse embryonic stem cells), Q9Z248-1 1-504 (protein)
chain: MAAALADMADLEELSRLSPLSPGSPGPAARGRAEPPEEEEEEDDEEAEAEAVAALLLNGGAGGGAGGGEAETMSEPSPESASQAGGDEDEDEEDDEDEGSSSGGAEEESSAESLVGSSSGGCSGDETRSLSPGAASSSSGDGDGKEGLEEPKGPRGGPGGPGSSGGGSSSSSVVSSGGDEGYGTGGGGSSATSGGRRGSLEMSSDGEPLSRMDSEDSISSTLMDIDSTISSGRSTPAMMNGQGSTTASSKHIAYNCCWDQCQACFNSSPDLADHIRSIHVDGQRGGVFVCLWKGCKVYNTPSTSQSWLQRHMLTHSGDKPFKCVVGGCNASFASQGGLARHVPTHFSQQNSSKVSSQPKAKEESPSKAGMNKRRKLKNKRRRSLPRPHDFFDAQTLDAIRHRAICFNLSAHIESLGKGHSVVFHSTVIAKRKEESGKIKLLLHWMPEDILPDVWVNESERHQLKTKVVHLSKLPKDTALLLDPNIYRTMPQKRLKRFDILNFPR
